# Values quoted from earlier work, collected in patent US20170157108A1, “LIQUID FORMULATION COMPRISING MONTELUKAST OR PHARMACEUTICALLY ACCEPTABLE SALT THEREOF AND METHOD FOR PREPARING SAME” (HANMI PHARM. CO., LTD., priority 2013, published 2017).
# At least one structure is not confirmed: it was looked up by name or label, or the drawing left a doubt.
# Settings: 6 hours in 0.1 M solution of hydrochloric acid
structure (smiles),measurement,value
CC(C)(O)c1ccccc1CC[C@@H](SCC1(CC(=O)O)CC1)c1cccc(/C=C/c2ccc3ccc(Cl)cc3n2)c1 [montelukast],increase of montelukast cis-isomer,up to 14.6%
